Tags and fusion partners may be left off the protein sequences shown.

The series concerns the target T1, response regulator Awo_c25920 (Reg) (Acetobacterium woodii) (UniProt H6LEQ6).
T1 sequence (looked up): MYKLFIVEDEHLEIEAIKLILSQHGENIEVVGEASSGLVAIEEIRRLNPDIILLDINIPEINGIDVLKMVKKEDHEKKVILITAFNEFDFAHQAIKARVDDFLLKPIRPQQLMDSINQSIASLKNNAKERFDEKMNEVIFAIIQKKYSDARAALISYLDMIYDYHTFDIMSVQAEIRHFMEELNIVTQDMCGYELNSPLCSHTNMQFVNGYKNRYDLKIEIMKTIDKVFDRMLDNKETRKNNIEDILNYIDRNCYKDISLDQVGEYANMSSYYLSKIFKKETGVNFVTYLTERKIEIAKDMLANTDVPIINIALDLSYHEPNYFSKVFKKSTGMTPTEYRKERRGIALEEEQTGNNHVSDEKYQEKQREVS
The experiment in a line: EMSA. Particulars: protein phosphorylated with acetyl phosphate, 0-10 ug, 50 ng DNA, 5 mM MgCl2; EMSA in 12 ul buffer B: 50 mM Tris-HCl, 125 mM NaCl, 10 mM glycerol, 5 mM MgCl2, pH 7.8; 6% native PAGE in 1X TAE at 4 C, ethidium bromide stain; recombinant protein; residues 1-371; probe letters rebuilt from the primers and the genome.

Consider “ATAGTTCACAACTTTTGGATACTTAATTAGTATAATAGAATGGCATTTTTTTTGCAAGGTTTTTTTATAAAAAAAGCAGAAAAAAATAAATTTTTAATAGATAGCAATGTTTTGAATGGAAAAATACTGTTTAAAAGGCGTTATTTAAGAAAAAACGGTGATATTGCTTGCAACCTATAAAATACGGAAATGTTTAATTAAGAGGTGTCAAGAAAATATCTGCTTTATCAAAAATACGCATATATTCAAAAAAACGAAGCAATATAATACTGATACACAGCAAAATAGTCTAAAATGTCAAAAATAATGTCAAAAAATCCCTGTTTGTGTTATAATATTTTCAATGGAAAACGATTTTGAAATAAGAATTATGGGATTATTGTCTAAAGGGGTTGTTTT (double strand) [399 bp region upstream of Awo_c25930 (histidine kinase)]”, for which the binding result is reported as “binds”.

Values taken from PMC7593272.
